Laboratory results as given in paper PMC8466468.
No constants are given. Whether binding was seen depends on the method and setting. In cells and extracts the contact can be indirect. Some binding calls cover weakened binding; strength is not graded here.

The chains behind the UniProt entries cited, without tags or fusion partners. Where a name states a change or a piece, a line headed by the entry shows the natural chain unless it says otherwise.
UniProt Q8N6T7: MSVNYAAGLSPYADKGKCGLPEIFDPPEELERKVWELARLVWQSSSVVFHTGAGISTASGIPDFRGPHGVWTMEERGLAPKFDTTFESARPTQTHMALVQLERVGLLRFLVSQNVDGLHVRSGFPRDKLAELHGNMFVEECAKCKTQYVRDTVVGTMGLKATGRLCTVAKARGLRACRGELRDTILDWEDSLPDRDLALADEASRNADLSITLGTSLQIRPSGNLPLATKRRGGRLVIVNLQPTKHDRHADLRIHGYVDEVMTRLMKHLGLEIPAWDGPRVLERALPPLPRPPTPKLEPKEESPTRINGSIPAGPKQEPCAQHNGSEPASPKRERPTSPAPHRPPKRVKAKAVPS
UniProt P53396: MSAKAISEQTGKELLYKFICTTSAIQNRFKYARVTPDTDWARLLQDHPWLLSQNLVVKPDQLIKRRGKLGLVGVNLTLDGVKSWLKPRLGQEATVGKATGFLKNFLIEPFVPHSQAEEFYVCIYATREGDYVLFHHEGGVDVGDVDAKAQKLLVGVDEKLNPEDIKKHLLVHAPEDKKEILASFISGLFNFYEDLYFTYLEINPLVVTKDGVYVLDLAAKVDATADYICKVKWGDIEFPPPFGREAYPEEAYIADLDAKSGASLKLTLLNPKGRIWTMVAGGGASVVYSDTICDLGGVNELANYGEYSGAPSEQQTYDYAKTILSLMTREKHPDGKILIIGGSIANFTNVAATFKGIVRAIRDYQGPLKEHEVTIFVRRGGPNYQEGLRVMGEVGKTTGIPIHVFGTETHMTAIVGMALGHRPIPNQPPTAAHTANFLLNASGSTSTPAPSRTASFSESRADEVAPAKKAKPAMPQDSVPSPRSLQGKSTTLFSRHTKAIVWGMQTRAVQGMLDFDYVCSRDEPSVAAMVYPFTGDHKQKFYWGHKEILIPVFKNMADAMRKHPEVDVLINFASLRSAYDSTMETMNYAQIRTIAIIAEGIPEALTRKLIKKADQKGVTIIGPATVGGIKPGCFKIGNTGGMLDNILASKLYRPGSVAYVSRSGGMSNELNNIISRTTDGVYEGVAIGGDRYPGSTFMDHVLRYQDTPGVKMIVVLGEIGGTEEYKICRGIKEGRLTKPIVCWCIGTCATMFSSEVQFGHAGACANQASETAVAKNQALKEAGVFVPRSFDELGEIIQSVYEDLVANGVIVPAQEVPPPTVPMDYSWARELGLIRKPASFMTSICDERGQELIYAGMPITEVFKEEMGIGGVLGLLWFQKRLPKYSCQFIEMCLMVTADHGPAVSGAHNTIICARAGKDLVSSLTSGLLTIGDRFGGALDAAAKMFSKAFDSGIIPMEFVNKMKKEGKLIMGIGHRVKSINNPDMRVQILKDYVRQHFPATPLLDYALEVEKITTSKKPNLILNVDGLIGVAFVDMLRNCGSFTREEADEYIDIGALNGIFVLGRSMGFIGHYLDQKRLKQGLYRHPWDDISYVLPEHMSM

Tests used:
Assay in all cases: co-IP; Flag-immunoprecipitation with anti-FLAG M2 affinity gel from 2 mg total protein of U2OS lysate; buffer A (50 mM Tris-HCl pH 7.4, 250 mM NaCl, 0.5% Triton X-100, 10% glycerol); Western blot
[1] = target: Flag-tagged SIRT6 G60A (human) (UniProt Q8N6T7)
[2] = target: Flag-tagged SIRT6 H133Y (human) (UniProt Q8N6T7)
[3] = target: Flag-tagged SIRT6 R65A (human) (UniProt Q8N6T7)
[4] = target: Flag-tagged SIRT6 S56Y (human) (UniProt Q8N6T7)
[5] = target: Flag-tagged wild-type SIRT6 (human) (UniProt Q8N6T7)

Measured: binding

ATP citrate lyase (ACLY) (from UniProt P53396 1-1101) (enzyme)
binds: all assays above
